The values below come from publication PMC7124466.

By UniProt entry, the sequences of proteins in these tests, tags left out.
UniProt P18239: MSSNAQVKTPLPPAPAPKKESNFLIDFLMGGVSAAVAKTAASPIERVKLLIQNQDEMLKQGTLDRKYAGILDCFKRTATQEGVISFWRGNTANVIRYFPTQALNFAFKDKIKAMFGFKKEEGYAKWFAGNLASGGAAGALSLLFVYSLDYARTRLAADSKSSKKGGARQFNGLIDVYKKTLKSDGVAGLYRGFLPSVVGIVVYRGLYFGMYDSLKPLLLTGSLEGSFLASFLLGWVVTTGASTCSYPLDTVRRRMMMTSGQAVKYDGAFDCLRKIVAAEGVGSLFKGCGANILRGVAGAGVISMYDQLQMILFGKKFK

Results are given in words; binding and its absence hold for the method and conditions named. In cells and extracts the contact can be indirect. Some results given as binding are weak or reduced against the parent protein; the word gives no strength.

Common to all, as to assay: cross-linking; intact purified yeast mitochondria (5 mg/ml, isotonic buffer: 250 mM sucrose, 1 mM EDTA, 10 mM MOPS-KOH, pH 7.2) crosslinked in organello with 2 mM CBDPS-H8/D8, 21 °C 10 min then on ice 110 min; Lys-Lys inter-protein crosslinked peptides enriched (SCX, avidin) and identified by LC-MS/MS, FDR 2%
Assay [1] addresses PET9 (yeast (endogenous in mitochondria of strain YPH499)) (UniProt P18239).
Assay [2] deals with T1, ILV6 (yeast (endogenous in mitochondria of strain YPH499)) (UniProt P25605).
T1 sequence: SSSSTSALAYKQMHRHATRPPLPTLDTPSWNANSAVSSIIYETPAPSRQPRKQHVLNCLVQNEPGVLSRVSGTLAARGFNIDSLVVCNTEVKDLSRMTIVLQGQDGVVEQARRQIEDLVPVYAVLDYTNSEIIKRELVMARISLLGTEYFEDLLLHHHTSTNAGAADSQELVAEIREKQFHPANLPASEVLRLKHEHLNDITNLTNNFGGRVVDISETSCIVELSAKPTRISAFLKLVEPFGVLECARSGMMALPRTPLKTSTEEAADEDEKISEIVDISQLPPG

Assay [3] concerns the target T2, QCR2 (yeast (endogenous in mitochondria of strain YPH499)) (UniProt P07257).
T2 sequence: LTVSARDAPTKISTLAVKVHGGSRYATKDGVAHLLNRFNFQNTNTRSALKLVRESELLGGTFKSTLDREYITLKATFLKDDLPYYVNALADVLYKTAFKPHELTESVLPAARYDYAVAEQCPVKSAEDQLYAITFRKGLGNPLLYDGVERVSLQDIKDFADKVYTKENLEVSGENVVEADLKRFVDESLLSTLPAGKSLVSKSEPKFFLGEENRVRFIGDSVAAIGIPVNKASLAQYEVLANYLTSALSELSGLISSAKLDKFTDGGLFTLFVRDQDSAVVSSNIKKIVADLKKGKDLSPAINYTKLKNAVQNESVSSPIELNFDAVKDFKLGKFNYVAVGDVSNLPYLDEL

Assay [4] concerns the target T3, ATP17 (yeast (endogenous in mitochondria of strain YPH499)) (UniProt Q06405).
T3 sequence: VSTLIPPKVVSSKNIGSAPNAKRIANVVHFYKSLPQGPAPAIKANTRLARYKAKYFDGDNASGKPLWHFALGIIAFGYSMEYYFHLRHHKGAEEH

B1: AAC1 (protein, UniProt P04710 1-309)
chain: MSHTETQTQQSHFGVDFLMGGVSAAIAKTGAAPIERVKLLMQNQEEMLKQGSLDTRYKGILDCFKRTATHEGIVSFWRGNTANVLRYFPTQALNFAFKDKIKSLLSYDRERDGYAKWFAGNLFSGGAAGGLSLLFVYSLDYARTRLAADARGSKSTSQRQFNGLLDVYKKTLKTDGLLGLYRGFVPSVLGIIVYRGLYFGLYDSFKPVLLTGALEGSFVASFLLGWVITMGASTASYPLDTVRRRMMMTSGQTIKYDGALDCLRKIVQKEGAYSLFKGCGANIFRGVAAAGVISLYDQLQLIMFGKKFK
As for B1, the binding entry in assay [1] is on record as “binds”.

B2: ILV2 (protein, UniProt P07342 91-687)
chain: GLTGGQIFNEMMSRQNVDTVFGYPGGAILPVYDAIHNSDKFNFVLPKHEQGAGHMAEGYARASGKPGVVLVTSGPGATNVVTPMADAFADGIPMVVFTGQVPTSAIGTDAFQEADVVGISRSCTKWNVMVKSVEELPLRINEAFEIATSGRPGPVLVDLPKDVTAAILRNPIPTKTTLPSNALNQLTSRAQDEFVMQSINKAADLINLAKKPVLYVGAGILNHADGPRLLKELSDRAQIPVTTTLQGLGSFDQEDPKSLDMLGMHGCATANLAVQNADLIIAVGARFDDRVTGNISKFAPEARRAAAEGRGGIIHFEVSPKNINKVVQTQIAVEGDATTNLGKMMSKIFPVKERSEWFAQINKWKKEYPYAYMEETPGSKIKPQTVIKKLSKVANDTGRHVIVTTGVGQHQMWAAQHWTWRNPHTFITSGGLGTMGYGLPAAIGAQVAKPESLVIDIDGDASFNMTLTELSSAVQAGTPVKILILNNEEQGMVTQWQSLFYEHRYSHTHQLNPDFIKLAEAMGLKGLRVKKQEELDAKLKEFVSTKGPVLLEVEVDKKVPVLPMVAGGSGLDEFINFDPEVERQQTELRHKRTGGKH
Take B2: the binding entry in assay [2] was “binds”.

B3: COR1 (protein, UniProt P07256 27-457)
chain: AEVTQLSNGIVVATEHNPSAHTASVGVVFGSGAANENPYNNGVSNLWKNIFLSKENSAVAAKEGLALSSNISRDFQSYIVSSLPGSTDKSLDFLNQSFIQQKANLLSSSNFEATKKSVLKQVQDFEENDHPNRVLEHLHSTAFQNTPLSLPTRGTLESLENLVVADLESFANNHFLNSNAVVVGTGNIKHEDLVNSIESKNLSLQTGTKPVLKKKAAFLGSEVRLRDDTLPKAWISLAVEGEPVNSPNYFVAKLAAQIFGSYNAFEPASRLQGIKLLDNIQEYQLCDNFNHFSLSYKDSGLWGFSTATRNVTMIDDLIHFTLKQWNRLTISVTDTEVERAKSLLKLQLGQLYESGNPVNDANLLGAEVLIKGSKLSLGEAFKKIDAITVKDVKAWAGKRLWDQDIAIAGTGQIEGLLDYMRIRSDMSMMRW
As for B3, in assay [3], the binding result is given as “binds”.

B4: ATP7 (protein, UniProt P30902 1-174)
chain: MSLAKSAANKLDWAKVISSLRITGSTATQLSSFKKRNDEARRQLLELQSQPTEVDFSHYRSVLKNTSVIDKIESYVKQYKPVKIDASKQLQVIESFEKHAMTNAKETESLVSKELKDLQSTLDNIQSARPFDELTVDDLTKIKPEIDAKVEEMVKKGKWDVPGYKDRFGNLNVM
B4: the binding result in assay [4] is “binds”.
